{
  "sequences": {"note": "Sequences of proteins named here, by UniProt entry; tags and fusion partners are left off. A change or cut given only in a name is not applied to a line headed by its entry.", "UniProt Q96AH0": "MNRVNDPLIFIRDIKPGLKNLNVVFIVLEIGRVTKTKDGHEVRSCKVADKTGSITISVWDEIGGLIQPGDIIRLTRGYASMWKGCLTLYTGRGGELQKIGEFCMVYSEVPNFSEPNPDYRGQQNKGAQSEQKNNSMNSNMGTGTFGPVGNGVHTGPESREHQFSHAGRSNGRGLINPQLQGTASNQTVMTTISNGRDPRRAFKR"},
  "source": "paper PMC10955726",
  "biological_target": "hSSB2 (C-terminally His-tagged) (Homo sapiens) (UniProt Q96AH0)",
  "experiment": "fluorescence anisotropy",
  "settings": "Anisotropy: standard LLPS buffer without MgCl2 (50 mM KCl standard), 25 C, 10 nM probe, recombinant protein, protein details: C-terminal His, label: 3'-fluorescein, single-stranded DNA",
  "note": "Construct, isoform or probe ends are uncertain for at least one entry. No signal at the amounts used counts as a negative.",
  "data": [
    {"sequence": "ATTTTTGCGGATGGCTTAGAGCTTAATTGCGCAACG [ss36 DNA]", "values": [
      {"measurement": "Kd", "setting": "250 mM K-glutamate, Hill n 2.8", "value": 3.4, "unit": "µM"},
      {"measurement": "binding result", "setting": "250 mM KCl, binding practically eliminated", "value": "no binding"},
      {"measurement": "binding result", "setting": "250 mM MgCl2, binding practically eliminated", "value": "no binding"}
    ]}
  ]
}
